The nature of the experiment: qHTS Assay for Lipid Storage Modulators in Drosophila S3 Cells.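 On cell number change: cells counted by Cell Tracker Red CMTPX staining in the red channel.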 The conditions noted are these: BODIPY lipid droplet fluorescence, 18-24 h; for cell number change: measured here: cell count max response, cells fed with added oleic acid. A digest of the protocol: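 Drosophila S3 cells loaded with oleic acid (400 uM, as added) and compounds at several concentrations; lipid droplets imaged by 488-nm laser-scanning cytometry, 500–530 nm intensity and object ratio to cell channel. Percent activity normalized to 20 uM Triacsin C.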

The mark [1] stands for this setting: measured here: lipid fluorescence (Fed channel) AC50, cells fed with added oleic acid.
The mark [2] stands for this setting: measured here: cell number channel AC50, cells fed with added oleic acid.

Some of the results follow. These are further read-outs of the screen, such as a control signal, another cell line or another target. No call is given for them. Compounds called inactive in the main read-out are mostly missing here. Potencies come from curve fits of mixed quality, noted in brackets.

As to `Cc1cc(C)nc(NS(=O)(=O)c2ccc(NC(=S)NC(=O)c3ccco3)cc2)n1`, the cell number change is -29.1%. Under setting [1], the AC50 is 32.6 µM [falling, single point].
Turning to `C=CCOc1c(Br)cc(/C=N/O)cc1OCC`, under setting [2], the AC50 was 4.61 µM [falling, partial curve, poor fit].
For the molecule `CCc1ccccc1NC(=S)N(CCOC)C(C)c1ccco1` (configuration not stated), the cell number change was -1.17%. Besides, the AC50 under setting [1] was 18.4 µM [rising, partial curve].
Turning to `COc1ccc(-c2cc(C(=O)Nc3cccnc3)no2)cc1OC`, the cell number change was -7.94%.
As to `O=S1(=O)N=C(N(CCO)/N=C/C=C/c2ccccc2)c2ccccc21`, the cell number change was -39.2%.
Regarding `CC1(C(=O)O)CCC(C(=O)Nc2cccc(F)c2)C1(C)C` (configuration not stated), the cell number change is -6.38%. The AC50 under setting [1] was 0.00517 µM [falling, full curve].
`CC(O)CSc1nc2c(c(=O)[nH]c(=O)n2C)n1CC(O)COc1ccccc1` (configuration not stated): the cell number change was determined as 0.342%.
As to `CN(C)CC#Cc1cncc(C(=O)NNC(=O)Nc2ccc(Cl)cc2)c1`, the cell number change was found to be 14.8%. In addition, under setting [1], the AC50 was 0.517 µM [falling, single point].
On to `CC(=O)N1CCN(Cc2nc3cc(Cl)ccc3c(=O)[nH]2)CC1`, for which the AC50 under setting [1] was 29.1 µM [rising, single point].
Turning to `Cc1ccc(Cl)cc1NC(=O)CCS(=O)(=O)c1cccc2nonc12`, the cell number change came to 29.6%.
On to `CC1CCCCC12NC(=O)N(CC(=O)OCc1cccc(F)c1)C2=O` (configuration not stated), for which the cell number change was found to be 12.9%. The AC50 under setting [1] was 5.8 µM [rising, partial curve].
In the case of `O=C(CCC(=O)N1CCOCC1)NCCc1ccc(F)cc1`, the cell number change is -0.211%. Under setting [1], the AC50 is 0.58 µM [falling, single point].
As for `CC(=O)c1ccc(NC(=O)C(C)Nc2ccc(Cl)cc2)cc1` (configuration not stated), the cell number change came to 12.3%. The AC50 under setting [1] is 0.82 µM [rising, full curve, poor fit].
Consider `Cc1ccc(-n2cccc2C(=S)N=P(N(C)C)(N(C)C)N(C)C)cc1`, for which the cell number change is -30%. Also, the AC50 under setting [1] is 1.03 µM [falling, full curve].
With `CCOC(=O)C1=C(C)Nc2nc3ccccc3n2C1c1ccccc1` (configuration not stated), under setting [2], the AC50 was 0.00411 µM [rising, full curve, poor fit].
On to `COc1ccc(C(=O)OCC(=O)NC2CCCC2)c(OC)c1`, for which the AC50 under setting [1] is 6.51 µM [rising, single point].
For the molecule `CC(C)(C)N1CCC1CN` (configuration not stated), the cell number change was -28.3%. Moreover, the AC50 under setting [1] was 29.1 µM [falling, single point].
In the case of `CC(C)c1cc(Br)ccc1OCCCN1C(=O)NC(C)(C)C1=O`, the AC50 under setting [2] was 2.31 µM [rising, partial curve] and the AC50 under setting [1] was 29.1 µM [falling, single point].
As for `Cc1nn(C2CCS(=O)(=O)C2)c2nc(C3CC3)cc(C(=O)Nc3ccc(C(N)=O)cc3)c12` (configuration not stated), the cell number change is 39.1%. Also, the half-maximal activity concentration (AC50) under setting [2] is 29.1 µM [rising, single point].
As to `CN(CC(=O)Nc1ccc2c(c1)OCCO2)S(=O)(=O)c1cccc2cccnc12`, the cell number change was -9.39%. The AC50 under setting [2] was 0.517 µM [falling, partial curve]. Under setting [1], the AC50 is 0.291 µM [falling, partial curve].
Regarding `Cc1ccnc(NC(=S)N2CCN(c3cccc(C(F)(F)F)c3)CC2)c1`, the cell number change is 12.1%. Besides, under setting [2], the AC50 is 0.259 µM [rising, full curve, poor fit].
For the molecule `CNC(=O)C1CC(=O)N(CCc2ccccc2)C(=Nc2ccc(OC)cc2)S1` (configuration not stated), the cell number change is -19.3%. The AC50 under setting [2] is 1.64 µM [falling, partial curve, poor fit]. Also, the AC50 under setting [1] was 3.26 µM [falling, single point].
In the case of `Cc1ccc(NC(=O)N2CCSc3ccccc32)cc1`, the cell number change was 32.1%. For the same molecule, the AC50 under setting [2] was 16.4 µM [rising, single point].
As to `COc1ccc(OC)c(-n2c(=S)[nH]c3cc(C(=O)N4CCC(C(N)=O)CC4)ccc3c2=O)c1`, the cell number change was -33.9%. For the same molecule, the concentration at half-maximal activity (AC50) under setting [2] is 0.231 µM [falling, full curve, poor fit]. Also, the AC50 under setting [1] was 0.651 µM [falling, full curve, poor fit].
Take `COc1ccc(C(=O)O)cc1NCc1cccnc1`: the cell number change came to 8.84%. Moreover, the AC50 under setting [1] is 0.58 µM [rising, single point].
Regarding `CCCCn1c(N)c(N(CC(C)C)C(=O)CC(NC(=O)c2ccccc2)c2ccccc2)c(=O)[nH]c1=O` (configuration not stated), the cell number change is -7%.
On to `COc1ccccc1N1CCN(/N=C/c2ccc(O)c(O)c2)CC1`, for which the cell number change was -16%. Moreover, the concentration at half-maximal activity (AC50) under setting [1] was 20.6 µM [falling, single point].
For `Clc1cccc(Cl)c1CO/N=C/c1c(-c2ccccc2)nc2n1CCS2`, the cell number change turned out to be 9.77%.
For `COc1ccc2nc(NC(=O)c3ccc(NS(=O)(=O)c4cccs4)cc3)sc2c1`, the cell number change amounted to 47.2%. The AC50 under setting [2] was 29.1 µM [rising, single point].
Regarding `CC(=O)c1ccccc1Oc1cc(NN2CCCCC2)c([N+](=O)[O-])cc1[N+](=O)[O-]`, the cell number change is -2.99%. In addition, the AC50 under setting [1] was 29.1 µM [rising, single point].
`COc1cccc(NC(=O)Nc2nc(SC(C)(C)C)ns2)c1`: the cell number change is -41.1%. Under setting [2], the half-maximal activity concentration (AC50) was 14.6 µM [falling, single point]. For the same molecule, the AC50 under setting [1] is 6.51 µM [falling, single point].
For `O=C(CN1C(=O)/C(=C/c2cccc(Br)c2)SC1=S)NC1=NCCS1`, the cell number change came to 15.4%.
Regarding `O=C(N/N=C/c1ccc2c(c1)OCO2)c1ccc(NC(=O)c2ccccc2Cl)cc1`, the cell number change came to 15%. Under setting [1], the AC50 was 29.1 µM [falling, single point].
For `Cc1ccc(S(=O)(=O)N2CCOCC2)cc1C(=O)OC1CCCCC1=O` (configuration not stated), the cell number change is -32.3%. For the same molecule, the half-maximal activity concentration (AC50) under setting [2] is 29.1 µM [falling, single point].
Take `O=C(O/N=C1\CCCc2ccccc21)c1cccs1`: the cell number change is 22.4%. The AC50 under setting [1] was 2.06 µM [falling, partial curve].
For `CC(C)NC(=O)C(=O)Nc1cc2c3c(c1)CCC(=O)N3CCC2`, under setting [1], the AC50 is 6.51 µM [falling, single point].
`C=CCn1c(COc2ccccc2F)nnc1SCC(=O)c1c[nH]c2ccccc12`: the cell number change was -10.7%. Moreover, the AC50 under setting [1] was 20.6 µM [falling, partial curve].
For `COc1ccc(OC)c(C(C(=O)NC2CCCCC2)N(C(=O)c2snc(C(N)=O)c2N)c2ccccc2OC)c1` (configuration not stated), the cell number change amounted to 467%. For the same molecule, the AC50 under setting [1] is 29.1 µM [falling, single point].
For the molecule `O=C(O)CC(C(=O)Nc1ccc(Cl)c(Cl)c1)C1CCCO1` (configuration not stated), the AC50 under setting [1] is 18.4 µM [falling, partial curve].
As to `Cc1ccc(-c2nc(-c3ccccc3)no2)cc1`, the cell number change is -0.229%.
As to `Cc1ccc(/C=N/n2c(-c3ccncc3)n[nH]c2=S)cc1`, the cell number change turned out to be 52.1%. Moreover, the AC50 under setting [2] is 5.17 µM [rising, full curve]. For the same molecule, under setting [1], the AC50 was 1.84 µM [rising, single point].
As for `CCn1c(CC(=O)Nc2cccc(Cl)c2Cl)nnc1SCCOc1ccc(OC)cc1`, the cell number change was -12.9%.
The same measure, in the same setting: in the case of `CCC(C)N(C(=O)CSc1nnc2ccccn12)C1CCS(=O)(=O)C1` (configuration not stated) it was -15.3%.
Consider `COC(=O)C(C)(C)ONC(=O)Nc1ccccc1Cl`, for which the cell number change turned out to be 5.46%. For the same molecule, under setting [2], the AC50 was 0.103 µM [falling, full curve, poor fit]. Under setting [1], the AC50 was 5.17 µM [falling, full curve].
`Cc1cc(C)n(-c2ccc(C(=O)Nc3ccc(C)c(S(=O)(=O)N4CCOCC4)c3)cc2)n1`: the cell number change was -29.6%. Further, under setting [1], the AC50 is 4.61 µM [falling, single point].
As for `CC(C)C(CO)NC(=O)CC(=O)NC(CO)C(C)C` (configuration not stated), the cell number change came out at 1.36%. In addition, the AC50 under setting [1] is 29.1 µM [falling, single point].
`Cc1cc(C(=O)N2CCCC(Nc3ccccc3)C2)c2ccc(F)cc2n1` (configuration not stated): the AC50 under setting [1] was 4.11 µM [falling, single point].
Take `O=C(O)c1ccc(/C=C/c2nc3sc4c(c3c(=O)[nH]2)CCC4)cc1`: the cell number change is -18.5%.
Take `CC(C)c1ccc(CNc2ccc3c(c2)ncn3C)cc1`: the cell number change is -8.15%. Moreover, the half-maximal activity concentration (AC50) under setting [1] is 25.9 µM [falling, single point].
Turning to `Cc1ccc(-c2csc3nc[nH]c(=S)c23)cc1C`, the cell number change was -23.1%. For the same molecule, the AC50 under setting [2] is 6.51 µM [rising, single point].
`CCN1CCN(CCCNC(=O)CS(=O)(=O)Cc2nc(-c3cccc(OC)c3)oc2C)CC1`: the concentration at half-maximal activity (AC50) under setting [1] is 6.51 µM [falling, single point].
Take `CCOc1ccccc1NC(=O)CN(c1nccs1)S(=O)(=O)c1ccc(N)cc1`: the cell number change was determined as 17.4%. Under setting [1], the AC50 is 18.4 µM [rising, partial curve, poor fit].
`Cc1ccc(C(=O)NC2CCCC2)s1`: the cell number change was -7.04%. Besides, the AC50 under setting [1] is 23.1 µM [rising, single point].
In the case of `COc1ccc(N2CCN(S(=O)(=O)CCNC(=O)C3CCCCC3)CC2)cc1`, the cell number change was found to be 13.7%.
Consider `COc1ccc(-c2cc(C3CC3)nc(N)c2C#N)cc1`, for which the AC50 under setting [2] was 0.731 µM [rising, single point] and the half-maximal activity concentration (AC50) under setting [1] is 29.1 µM [rising, single point].
For `CCC(CC)C(=O)Nc1cc(NC(=O)C(CC)CC)cc(C(=O)O)c1`, the cell number change is -171%. In addition, under setting [2], the AC50 was 18.4 µM [falling, partial curve]. The AC50 under setting [1] is 18.4 µM [falling, partial curve].
For the molecule `CC1(C)Cc2c(C#N)c(OCC(=O)c3ccc(Cl)cc3)nc(-c3ccoc3)c2CO1`, the cell number change is -2.44%. Moreover, the AC50 under setting [1] is 0.731 µM [rising, full curve, poor fit].
As for `CC(C)N(Cc1cc2ccccc2[nH]c1=O)C(=O)c1cccc([N+](=O)[O-])c1`, the cell number change is -11.1%.
`COc1ccc(NC(=O)/C(C#N)=C\c2ccc(N3CCOCC3)o2)cc1`: the cell number change was -45%. In addition, the concentration at half-maximal activity (AC50) under setting [2] was 29.1 µM [falling, single point]. The concentration at half-maximal activity (AC50) under setting [1] was 23.1 µM [falling, single point].
Regarding `O=c1c(Cc2c(F)cccc2Cl)c(O)ccn1CCCN1CCOCC1`, the cell number change came to 6.1%.
As to `CCCn1c(=O)c2ccccc2n2c(SCCNCCO)nnc12`, the AC50 under setting [2] was 0.0651 µM [rising, full curve, poor fit].
Turning to `NC(=O)C1CCN(c2ccc(S(=O)(=O)N3CCCCC3)cn2)CC1`, the cell number change was found to be 117%. Moreover, under setting [2], the AC50 was 29.1 µM [rising, partial curve]. Further, the AC50 under setting [1] is 29.1 µM [rising, partial curve].
With `CCOC(=O)CNC(=O)CSc1nc(N(C)C)nc(N2CCOCC2)n1`, the cell number change stood at 0.834%. Moreover, under setting [1], the AC50 is 0.326 µM [rising, single point].

For the origin of these results see PubChem BioAssay AID2685 (National Center for Advancing Translational Sciences (NCATS), 2010).
